Measurements reported in PubChem BioAssay AID1347075 (National Center for Advancing Translational Sciences (NCATS), 2019).
Screen size: about 400,000 compounds; about 5,500 (1.4%) were called active. Inconclusive results, whose numbers are uncertain, are shown with a selection of clear calls. Calls come from the whole dose curve; as a rule, active = well fitted cell-killing curve with a large enough effect; inconclusive = small, poorly fitted or top-dose-only effect, or effect the other way; inactive = flat fitted curve, though single readings scatter. Where the call is inconclusive, the potency comes from a doubtful curve fit.

test: qHTS assay for MDR1-selective chemotherapeutics: Primary screen using the parental adenocarcinoma cell KB-3-1; settings: KB-3-1 viability, CellTiter-Glo ATP luminescence, 72 h; activity change, negative = cytotoxic: at 46.1 µM (top of the series); note: nearly all actives have a fitted effect of over 60% in size
Outline: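 KB-3-1 parental drug-naive adenocarcinoma cells in DMEM/10% FBS, incubated 72 h at 37 C with pin-transferred compounds across a concentration series. Viability by CellTiter-Glo luminescence; concentration-response curves fitted after normalization.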
% is set by controls: 0 for no effect and ±100 for the full control effect; potency is the fitted concentration of half-maximal effect.

SMILES | Potency | activity change, negative = cytotoxic
CCCCn1nc(C(=O)Nc2ccc(S(=O)(=O)Nc3ncccn3)cc2)c2ccccc2c1=O | inconclusive: 20.6 µM [rising, partial curve, poor fit] | 
O=C(N/N=C/c1sc(=O)n(Cc2ccc(Br)cc2)c1Cl)c1ccco1 | inconclusive: 32.6 µM [cytotoxic, single point] | 
CN1CCCC1=Nc1ccccc1 | inconclusive: 20.6 µM [rising, single point] | 
COc1ccc(NC(=S)NC(NC(=O)/C=C/c2ccccc2)C(Cl)(Cl)Cl)cc1 (stereo not drawn) | inconclusive: 23.1 µM [cytotoxic, single point] | 
Cc1cc(C)n(CC(=O)N/N=C/c2ccc([N+](=O)[O-])s2)n1 | inconclusive: 18.4 µM [cytotoxic, single point] | 
COc1cccc(OC)c1-c1nn2c(-c3n[nH]c4c3CCC4)nnc2s1 | inconclusive: 29.1 µM [cytotoxic, single point] | 
COC(=O)c1cc(Nc2nc3ccccc3nc2NS(=O)(=O)c2ccc(C)cc2)ccc1Cl | inconclusive: 11.6 µM [cytotoxic, partial curve, poor fit] | 
Cc1cc(C)n(-c2nc(N(c3ccccc3)c3ccccc3)nc(-n3nc(C)cc3C)n2)n1 | active: 18.4 µM | 
C[C@@H]1C[C@H](Nc2ccccc2)c2ccccc2N1C(=O)c1cccnc1 | inconclusive: 20.6 µM [cytotoxic, single point] | 
Nc1ccc(Cl)c(S(=O)(=O)Nc2cccc(Cl)c2)c1 | inactive | 
C/C(=N\NC(=O)c1ccc(-c2ccccc2)cc1)C1C(=O)c2ccccc2C1=O | inconclusive: 13 µM [cytotoxic, partial curve] | 
CCOC(=O)c1c(NC(=O)c2cc(-c3ccccc3OC)on2)sc(C)c1C | inactive | 
O=S(=O)(c1cccc(COc2ccc(Cl)cc2Cl)c1)N1CCOCC1 | inconclusive: 32.6 µM [cytotoxic, single point] | 
O=C(CCl)Nc1ccc(Sc2ccc(NC(=O)CCl)cc2)cc1 | inconclusive: 2.31 µM [cytotoxic, full curve, poor fit] | 
CCOC(=O)C1=C(C)NC(C)=C(C(=O)OCC)C1c1ccncc1 | inconclusive: 20.6 µM [cytotoxic, single point] | 
COc1ccc(N(Cc2nnc3n2CCCCC3)C(=O)Nc2ccccc2)cc1 | inconclusive: 16.4 µM [rising, partial curve, poor fit] | 
CCOC(=O)c1sc(-c2cccc(C(F)(F)F)c2)nc1O | inconclusive: 29.1 µM [cytotoxic, partial curve, poor fit] | 
CCc1ccc2oc(C(=O)NCC(c3ccc(OC)cc3)N3CCCCC3)c(C)c2c1 (stereo not drawn) | inconclusive: 29.1 µM [cytotoxic, single point] | 
Cc1cccc(-c2cc(C(=O)NCc3ccccn3)c3ccccc3n2)c1 | inactive | 
COc1ccc(Nc2nc(C(=O)NCc3ccco3)cs2)cc1 | active: 16.4 µM | 
Cc1occc1C(=O)Nc1ccccc1C#N |  | inconclusive: 31.7%
O=C(CN1C(=O)COc2ccccc21)Nc1ccccc1F | inconclusive: 29.1 µM [cytotoxic, single point] | 

SMILES | Potency | activity change, negative = cytotoxic
CC(NC(=O)/C(C#N)=C/c1cccs1)c1ccccc1 (stereo not drawn) | inactive | 
CCOC(=O)c1c(NC(=O)CS(=O)(=O)c2cn(CC)c3ccccc23)sc2c1CCCCC2 | inactive | 
CCN(CC)C(=O)[C@H]1C[C@H](CC(=O)NC/C=C(\C)CCC=C(C)C)C(=O)N2CCc3c([nH]c4ccc(Cl)cc34)[C@]12C | inconclusive: 29.1 µM [cytotoxic, single point] | 
N#C/C(=C\c1ccccc1[N+](=O)[O-])C(=O)NC1CCCCC1 | inconclusive: 29.1 µM [cytotoxic, single point] | 
COc1cccc(CC2(CO)CCN(S(=O)(=O)c3ccc(OC)cc3OC)CC2)c1 | inactive | 
Fc1cnc(N2CCN(c3ccccc3)CC2)nc1N1CCN(c2ccccc2)CC1 | inconclusive: 29.1 µM [cytotoxic, single point] | 
N#Cc1c[nH]n2c(NC3CCCCC3)c(-c3ccc(F)cc3)nc12 | inactive | 
O=C(NCC(=O)N1CCN(S(=O)(=O)c2cccs2)CC1)c1ccc(Cl)cc1 | inconclusive: 32.6 µM [rising, single point] | 
COc1cc2cc(C#N)c(SCC(=O)OC(C)C)nc2cc1OC | inactive | 
O=C(Nc1ccccc1)C1=C[C@@H](c2ccc(C(F)(F)F)cc2)C[C@@H](OCc2ccc(CO)cc2)O1 | inconclusive: 32.6 µM [cytotoxic, single point] | 
CC(C)c1nc2sc3c(=O)[nH]cnc3c2c2c1CCCC2 | inconclusive: 0.58 µM [cytotoxic, full curve] | 
NS(=O)(=O)c1ccc(NC(=O)COC(=O)C2(c3ccccc3F)CCCC2)cc1 | inconclusive: 18.4 µM [cytotoxic, single point] | 
COc1ccc(Nc2nc(-c3sc(C)nc3C)cs2)c(OC)c1 | active: 7.31 µM | 
O=C(NNC(=O)c1cccc(S(=O)(=O)N2CCc3ccccc32)c1)c1ccccc1 | inconclusive: 29.1 µM [cytotoxic, single point] | 
Cc1ccc(C)c(NC(=O)Cn2nc([N+](=O)[O-])c(Br)c2C)c1 | inconclusive: 16.4 µM [cytotoxic, single point] | 
CCN(CC)c1ccc(C2=NNC(=O)CC2C)cc1[N+](=O)[O-] (stereo not drawn) | active: 0.206 µM | 
CCCOc1ccc(C(=O)NNC(=S)NC(=O)c2ccccc2[N+](=O)[O-])cc1 | inconclusive: 29.1 µM [cytotoxic, single point] | 
O=C(CCN1CCN(C(=O)c2ccccc2)CC1)c1ccc(Br)cc1 | inactive | 
CCc1ccc2[nH]cc(S(=O)(=O)c3ccc(C(C)C)cc3)c(=O)c2c1 | inconclusive: 23.1 µM [cytotoxic, partial curve, poor fit] | 
COc1cc2c(cc1OC)C(c1c(Cl)cccc1Cl)=NCC2 | active: 20.6 µM | 
CC(C)(C)NC(=O)C1C(c2ccc(C(F)(F)F)cc2)=Nc2ccccc2N1C(=O)c1cccc(C(F)(F)F)c1 (stereo not drawn) | inconclusive: 18.4 µM [cytotoxic, single point] | 

Exported as comma-separated lines: nine of the compounds above.
SMILES,Potency,"activity change, negative = cytotoxic"
CCN(CC)C(=O)[C@H]1C[C@H](CC(=O)NC/C=C(\C)CCC=C(C)C)C(=O)N2CCc3c([nH]c4ccc(Cl)cc34)[C@]12C,"inconclusive: 29.1 µM [cytotoxic, single point]",
N#C/C(=C\c1ccccc1[N+](=O)[O-])C(=O)NC1CCCCC1,"inconclusive: 29.1 µM [cytotoxic, single point]",
COc1cccc(CC2(CO)CCN(S(=O)(=O)c3ccc(OC)cc3OC)CC2)c1,inactive,
Fc1cnc(N2CCN(c3ccccc3)CC2)nc1N1CCN(c2ccccc2)CC1,"inconclusive: 29.1 µM [cytotoxic, single point]",
N#Cc1c[nH]n2c(NC3CCCCC3)c(-c3ccc(F)cc3)nc12,inactive,
O=C(NCC(=O)N1CCN(S(=O)(=O)c2cccs2)CC1)c1ccc(Cl)cc1,"inconclusive: 32.6 µM [rising, single point]",
COc1cc2cc(C#N)c(SCC(=O)OC(C)C)nc2cc1OC,inactive,
O=C(Nc1ccccc1)C1=C[C@@H](c2ccc(C(F)(F)F)cc2)C[C@@H](OCc2ccc(CO)cc2)O1,"inconclusive: 32.6 µM [cytotoxic, single point]",
CC(C)c1nc2sc3c(=O)[nH]cnc3c2c2c1CCCC2,"inconclusive: 0.58 µM [cytotoxic, full curve]",
